Assay results: paper PMC10836090

Chains of the proteins cited; added tags and fusions are not shown. Lines headed by an entry give the natural chain unless they say otherwise; changes in a name come on top. Residues count along the entry.
UniProt P16035, residues 27-220: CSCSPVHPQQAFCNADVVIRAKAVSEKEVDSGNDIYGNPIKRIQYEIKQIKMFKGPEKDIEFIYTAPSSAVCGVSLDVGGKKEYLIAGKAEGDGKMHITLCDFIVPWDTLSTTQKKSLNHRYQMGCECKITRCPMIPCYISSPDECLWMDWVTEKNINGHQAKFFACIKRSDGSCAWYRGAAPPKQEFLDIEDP
UniProt P08311: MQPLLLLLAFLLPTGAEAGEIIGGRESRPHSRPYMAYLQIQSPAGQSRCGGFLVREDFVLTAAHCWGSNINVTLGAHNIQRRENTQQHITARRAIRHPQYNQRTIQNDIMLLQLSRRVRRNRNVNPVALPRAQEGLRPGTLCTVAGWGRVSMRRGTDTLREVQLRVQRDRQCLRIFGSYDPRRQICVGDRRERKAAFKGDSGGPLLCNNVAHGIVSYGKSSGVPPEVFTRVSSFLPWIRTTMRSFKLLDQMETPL
UniProt P02787, residues 20-698: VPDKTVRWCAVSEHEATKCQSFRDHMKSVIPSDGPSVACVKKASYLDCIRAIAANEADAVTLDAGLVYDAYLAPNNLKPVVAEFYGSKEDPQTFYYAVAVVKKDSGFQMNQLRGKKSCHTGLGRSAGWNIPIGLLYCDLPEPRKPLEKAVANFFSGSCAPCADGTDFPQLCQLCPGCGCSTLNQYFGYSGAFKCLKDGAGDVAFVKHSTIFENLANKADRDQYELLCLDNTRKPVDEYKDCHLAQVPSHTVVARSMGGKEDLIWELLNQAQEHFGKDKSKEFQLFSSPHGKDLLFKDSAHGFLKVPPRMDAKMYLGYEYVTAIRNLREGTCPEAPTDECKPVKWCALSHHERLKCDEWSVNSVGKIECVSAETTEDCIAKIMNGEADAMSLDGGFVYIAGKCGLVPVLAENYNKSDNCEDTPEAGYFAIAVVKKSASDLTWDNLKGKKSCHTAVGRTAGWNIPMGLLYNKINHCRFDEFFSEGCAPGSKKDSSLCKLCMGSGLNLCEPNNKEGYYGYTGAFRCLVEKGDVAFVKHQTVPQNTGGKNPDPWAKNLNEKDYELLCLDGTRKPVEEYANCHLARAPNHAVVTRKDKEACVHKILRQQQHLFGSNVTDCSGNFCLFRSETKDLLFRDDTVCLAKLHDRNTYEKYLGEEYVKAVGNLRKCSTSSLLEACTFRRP
UniProt P01024, residues 23-1663: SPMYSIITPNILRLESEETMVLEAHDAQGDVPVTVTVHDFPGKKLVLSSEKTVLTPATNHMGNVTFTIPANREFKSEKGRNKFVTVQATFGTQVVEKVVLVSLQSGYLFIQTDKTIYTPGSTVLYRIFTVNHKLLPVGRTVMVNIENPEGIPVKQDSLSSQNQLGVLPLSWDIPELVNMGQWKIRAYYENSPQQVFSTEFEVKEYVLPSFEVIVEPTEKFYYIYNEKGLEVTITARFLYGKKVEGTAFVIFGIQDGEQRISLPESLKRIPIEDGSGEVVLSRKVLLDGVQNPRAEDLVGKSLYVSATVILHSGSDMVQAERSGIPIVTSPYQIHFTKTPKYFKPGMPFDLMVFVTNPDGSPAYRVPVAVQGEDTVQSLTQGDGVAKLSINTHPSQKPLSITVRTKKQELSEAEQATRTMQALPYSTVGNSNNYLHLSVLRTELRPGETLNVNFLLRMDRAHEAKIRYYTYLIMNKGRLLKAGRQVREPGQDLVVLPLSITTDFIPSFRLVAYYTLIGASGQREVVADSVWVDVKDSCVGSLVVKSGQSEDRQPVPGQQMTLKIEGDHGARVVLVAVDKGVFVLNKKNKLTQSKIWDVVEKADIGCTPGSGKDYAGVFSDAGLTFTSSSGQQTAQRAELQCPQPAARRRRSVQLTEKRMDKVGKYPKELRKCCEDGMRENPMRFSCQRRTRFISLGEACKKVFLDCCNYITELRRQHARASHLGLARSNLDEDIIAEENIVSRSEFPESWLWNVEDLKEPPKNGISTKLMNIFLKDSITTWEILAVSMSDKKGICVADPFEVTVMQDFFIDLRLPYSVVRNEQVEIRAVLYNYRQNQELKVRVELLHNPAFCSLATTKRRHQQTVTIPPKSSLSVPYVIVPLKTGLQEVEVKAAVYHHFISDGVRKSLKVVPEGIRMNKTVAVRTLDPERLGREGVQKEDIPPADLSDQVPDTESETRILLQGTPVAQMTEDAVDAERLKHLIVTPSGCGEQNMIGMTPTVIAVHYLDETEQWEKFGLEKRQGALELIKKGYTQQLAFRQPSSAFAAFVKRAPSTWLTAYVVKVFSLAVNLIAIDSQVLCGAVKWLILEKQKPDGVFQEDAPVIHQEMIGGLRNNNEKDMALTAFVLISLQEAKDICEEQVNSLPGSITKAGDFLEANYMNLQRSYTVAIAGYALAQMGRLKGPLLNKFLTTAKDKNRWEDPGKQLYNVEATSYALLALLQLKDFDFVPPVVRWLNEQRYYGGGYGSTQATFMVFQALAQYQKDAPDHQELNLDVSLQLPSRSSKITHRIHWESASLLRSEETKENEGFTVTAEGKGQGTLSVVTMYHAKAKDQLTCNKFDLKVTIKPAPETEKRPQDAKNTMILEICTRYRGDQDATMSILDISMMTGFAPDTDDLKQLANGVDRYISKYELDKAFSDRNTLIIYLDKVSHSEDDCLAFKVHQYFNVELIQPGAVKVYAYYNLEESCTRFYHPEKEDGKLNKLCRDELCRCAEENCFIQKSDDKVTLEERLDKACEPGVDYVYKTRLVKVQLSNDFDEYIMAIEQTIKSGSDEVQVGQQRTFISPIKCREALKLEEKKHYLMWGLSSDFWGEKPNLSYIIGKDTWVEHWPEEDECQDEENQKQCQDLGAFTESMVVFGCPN
UniProt Q9BZP6, residues 22-476: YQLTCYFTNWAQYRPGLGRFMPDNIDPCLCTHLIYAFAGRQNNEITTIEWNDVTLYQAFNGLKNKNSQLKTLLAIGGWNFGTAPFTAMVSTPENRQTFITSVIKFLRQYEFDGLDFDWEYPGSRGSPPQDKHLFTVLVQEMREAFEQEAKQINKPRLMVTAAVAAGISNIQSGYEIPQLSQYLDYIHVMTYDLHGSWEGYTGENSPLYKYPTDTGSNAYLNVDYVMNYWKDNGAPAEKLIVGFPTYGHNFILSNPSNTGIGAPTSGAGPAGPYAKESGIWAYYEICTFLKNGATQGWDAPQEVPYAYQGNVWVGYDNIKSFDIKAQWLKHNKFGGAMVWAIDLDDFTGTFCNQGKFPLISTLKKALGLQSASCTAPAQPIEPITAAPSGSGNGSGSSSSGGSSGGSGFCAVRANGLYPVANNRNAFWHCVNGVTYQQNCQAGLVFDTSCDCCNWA
UniProt Q9NS15, residues 44-1303: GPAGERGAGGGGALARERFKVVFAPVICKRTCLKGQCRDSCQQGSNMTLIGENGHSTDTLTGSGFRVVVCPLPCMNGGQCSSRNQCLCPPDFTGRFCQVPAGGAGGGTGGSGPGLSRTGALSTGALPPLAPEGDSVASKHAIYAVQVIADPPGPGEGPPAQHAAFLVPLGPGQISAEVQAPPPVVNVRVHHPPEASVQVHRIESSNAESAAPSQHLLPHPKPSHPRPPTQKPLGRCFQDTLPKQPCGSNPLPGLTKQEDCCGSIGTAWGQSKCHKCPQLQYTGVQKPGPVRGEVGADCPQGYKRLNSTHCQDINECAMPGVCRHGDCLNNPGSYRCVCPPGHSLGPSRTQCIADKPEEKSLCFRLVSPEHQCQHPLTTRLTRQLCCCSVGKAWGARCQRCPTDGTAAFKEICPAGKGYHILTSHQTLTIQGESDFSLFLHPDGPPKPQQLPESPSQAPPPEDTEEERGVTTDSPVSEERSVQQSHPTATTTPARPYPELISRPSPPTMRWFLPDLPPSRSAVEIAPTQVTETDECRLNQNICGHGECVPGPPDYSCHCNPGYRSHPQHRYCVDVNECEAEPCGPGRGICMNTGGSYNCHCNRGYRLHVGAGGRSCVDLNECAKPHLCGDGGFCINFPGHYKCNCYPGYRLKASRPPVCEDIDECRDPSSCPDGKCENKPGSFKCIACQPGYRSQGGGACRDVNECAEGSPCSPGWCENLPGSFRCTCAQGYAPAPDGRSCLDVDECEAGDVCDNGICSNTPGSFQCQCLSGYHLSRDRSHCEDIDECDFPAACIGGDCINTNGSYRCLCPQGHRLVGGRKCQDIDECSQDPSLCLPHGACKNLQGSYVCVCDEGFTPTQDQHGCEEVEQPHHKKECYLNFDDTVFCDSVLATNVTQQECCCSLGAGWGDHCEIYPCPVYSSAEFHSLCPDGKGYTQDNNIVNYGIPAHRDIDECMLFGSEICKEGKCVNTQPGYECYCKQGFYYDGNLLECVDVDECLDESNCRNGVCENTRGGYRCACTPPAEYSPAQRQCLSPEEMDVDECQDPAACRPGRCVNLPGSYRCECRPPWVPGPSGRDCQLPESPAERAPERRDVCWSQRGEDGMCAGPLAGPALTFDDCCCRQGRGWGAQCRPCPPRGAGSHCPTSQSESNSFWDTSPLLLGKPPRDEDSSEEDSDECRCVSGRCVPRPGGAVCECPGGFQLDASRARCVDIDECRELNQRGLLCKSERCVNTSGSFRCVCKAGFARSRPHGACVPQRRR
UniProt P12260: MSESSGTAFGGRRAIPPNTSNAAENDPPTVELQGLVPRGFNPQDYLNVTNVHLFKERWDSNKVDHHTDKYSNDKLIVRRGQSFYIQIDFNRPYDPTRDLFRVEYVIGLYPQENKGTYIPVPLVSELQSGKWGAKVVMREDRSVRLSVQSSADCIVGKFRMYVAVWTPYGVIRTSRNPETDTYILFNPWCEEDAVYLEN
UniProt Q2UVX4, residues 23-1661: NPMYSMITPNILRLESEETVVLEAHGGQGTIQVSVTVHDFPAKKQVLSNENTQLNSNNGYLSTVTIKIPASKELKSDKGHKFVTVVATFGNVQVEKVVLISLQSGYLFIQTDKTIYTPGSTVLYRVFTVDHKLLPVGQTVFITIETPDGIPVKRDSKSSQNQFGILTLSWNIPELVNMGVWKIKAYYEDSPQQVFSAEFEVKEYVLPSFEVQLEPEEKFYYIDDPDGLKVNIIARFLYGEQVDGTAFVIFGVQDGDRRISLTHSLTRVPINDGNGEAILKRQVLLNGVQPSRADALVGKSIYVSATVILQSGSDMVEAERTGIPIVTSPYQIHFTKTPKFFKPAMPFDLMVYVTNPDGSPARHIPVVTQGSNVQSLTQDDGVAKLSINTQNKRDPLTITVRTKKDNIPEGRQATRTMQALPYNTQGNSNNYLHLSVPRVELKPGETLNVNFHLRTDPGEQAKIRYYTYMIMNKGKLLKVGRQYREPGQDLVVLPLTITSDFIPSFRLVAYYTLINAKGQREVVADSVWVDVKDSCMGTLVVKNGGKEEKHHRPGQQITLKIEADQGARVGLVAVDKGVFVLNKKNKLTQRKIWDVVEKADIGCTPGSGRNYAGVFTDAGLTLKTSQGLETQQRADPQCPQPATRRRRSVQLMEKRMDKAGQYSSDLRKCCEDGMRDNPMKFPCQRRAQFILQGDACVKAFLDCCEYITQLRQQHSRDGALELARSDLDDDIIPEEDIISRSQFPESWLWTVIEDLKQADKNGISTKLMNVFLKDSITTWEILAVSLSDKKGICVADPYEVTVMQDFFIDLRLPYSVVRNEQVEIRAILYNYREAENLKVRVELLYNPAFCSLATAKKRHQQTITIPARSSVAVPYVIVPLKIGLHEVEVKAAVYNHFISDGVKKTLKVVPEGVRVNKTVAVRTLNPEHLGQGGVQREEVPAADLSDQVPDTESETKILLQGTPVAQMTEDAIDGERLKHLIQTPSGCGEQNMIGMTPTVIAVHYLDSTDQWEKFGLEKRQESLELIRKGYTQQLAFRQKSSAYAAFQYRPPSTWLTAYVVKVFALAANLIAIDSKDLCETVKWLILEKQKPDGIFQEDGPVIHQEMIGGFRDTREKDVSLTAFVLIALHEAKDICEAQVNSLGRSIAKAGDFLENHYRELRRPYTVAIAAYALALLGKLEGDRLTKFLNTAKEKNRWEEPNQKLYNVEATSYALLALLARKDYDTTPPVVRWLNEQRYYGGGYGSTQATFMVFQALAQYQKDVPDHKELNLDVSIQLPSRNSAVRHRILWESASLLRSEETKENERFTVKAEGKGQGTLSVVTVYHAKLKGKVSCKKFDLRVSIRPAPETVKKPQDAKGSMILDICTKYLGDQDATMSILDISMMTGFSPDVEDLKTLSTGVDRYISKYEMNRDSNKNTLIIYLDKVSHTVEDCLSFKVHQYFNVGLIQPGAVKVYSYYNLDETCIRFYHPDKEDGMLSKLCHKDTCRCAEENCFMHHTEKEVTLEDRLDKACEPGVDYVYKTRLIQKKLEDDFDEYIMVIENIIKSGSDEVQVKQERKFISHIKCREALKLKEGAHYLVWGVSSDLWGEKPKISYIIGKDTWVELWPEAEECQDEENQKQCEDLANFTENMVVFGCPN
UniProt P20959, residues 28-291: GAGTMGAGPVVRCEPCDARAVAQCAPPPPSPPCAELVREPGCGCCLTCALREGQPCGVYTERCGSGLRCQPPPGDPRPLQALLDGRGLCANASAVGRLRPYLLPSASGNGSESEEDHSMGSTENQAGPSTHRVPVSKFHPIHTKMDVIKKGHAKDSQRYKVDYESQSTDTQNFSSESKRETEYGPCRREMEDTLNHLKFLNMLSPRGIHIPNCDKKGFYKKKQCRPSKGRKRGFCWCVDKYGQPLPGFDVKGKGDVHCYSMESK

B1: Secreted Frizzled Related Protein 1 (SFRP1) (protein, UniProt Q8N474 32-314)
chain: SEYDYVSFQSDIGPYQSGRFYTKPPQCVDIPADLRLCHNVGYKKMVLPNLLEHETMAEVKQQASSWVPLLNKNCHAGTQVFLCSLFAPVCLDRPIYPCRWLCEAVRDSCEPVMQFFGFYWPEMLKCDKFPEGDVCIAMTPPNATEASKPQGTTVCPPCDNELKSEAIIEHLCASEFALRMKIKEVKKENGDKKIVPKKKKPLKLGPIKKKDLKKLVLYLKNGADCPCHQLDNLSHHFLIMGRKVKSQYLLTAIHKWDKKNKEFKNFMKKMKNHECPTFQSVFK
B2: Pregnancy-Zone Protein (PZP) (protein, UniProt P20742 26-1482)
chain: TEPQYMVLVPSLLHTEAPKKGCVLLSHLNETVTVSASLESGRENRSLFTDLVAEKDLFHCVSFTLPRISASSEVAFLSIQIKGPTQDFRKRNTVLVLNTQSLVFVQTDKPMYKPGQTVRFRVVSVDENFRPRNELIPLIYLENPRRNRIAQWQSLKLEAGINQLSFPLSSEPIQGSYRVVVQTESGGRIQHPFTVEEFVLPKFEVKVQVPKIISIMDEKVNITVCGEYTYGKPVPGLATVSLCRKLSRVLNCDKQEVCEEFSQQLNSNGCITQQVHTKMLQITNTGFEMKLRVEARIREEGTDLEVTANRISEITNIVSKLKFVKVDSHFRQGIPFFAQVLLVDGKGVPIPNKLFFISVNDANYYSNATTNEQGLAQFSINTTSISVNKLFVRVFTVHPNLCFHYSWVAEDHQGAQHTANRVFSLSGSYIHLEPVAGTLPCGHTETITAHYTLNRQAMGELSELSFHYLIMAKGVIVRSGTHTLPVESGDMKGSFALSFPVESDVAPIARMFIFAILPDGEVVGDSEKFEIENCLANKVDLSFSPAQSPPASHAHLQVAAAPQSLCALRAVDQSVLLMKPEAELSVSSVYNLLTVKDLTNFPDNVDQQEEEQGHCPRPFFIHNGAIYVPLSSNEADIYSFLKGMGLKVFTNSKIRKPKSCSVIPSVSAGAVGQGYYGAGLGVVERPYVPQLGTYNVIPLNNEQSSGPVPETVRSYFPETWIWELVAVNSSGVAEVGVTVPDTITEWKAGAFCLSEDAGLGISSTASLRAFQPFFVELTMPYSVIRGEVFTLKATVLNYLPKCIRVSVQLKASPAFLASQNTKGEESYCICGNERQTLSWTVTPKTLGNVNFSVSAEAMQSLELCGNEVVEVPEIKRKDTVIKTLLVEAEGIEQEKTFSSMTCASGANVSEQLSLKLPSNVVKESARASFSVLGDILGSAMQNIQNLLQMPYGCGEQNMVLFAPNIYVLNYLNETQQLTQEIKAKAVGYLITGYQRQLNYKHQDGSYSTFGERYGRNQGNTWLTAFVLKTFAQARSYIFIDEAHITQSLTWLSQMQKDNGCFRSSGSLLNNAIKGGVEDEATLSAYVTIALLEIPLPVTNPIVRNALFCLESAWNVAKEGTHGSHVYTKALLAYAFSLLGKQNQNREILNSLDKEAVKEDNLVHWERPQRPKAPVGHLYQTQAPSAEVEMTSYVLLAYLTAQPAPTSGDLTSATNIVKWIMKQQNAQGGFSSTQDTVVALHALSRYGAATFTRTEKTAQVTVQDSQTFSTNFQVDNNNLLLLQQISLPELPGEYVITVTGERCVYLQTSMKYNILPEKEDSPFALKVQTVPQTCDGHKAHTSFQISLTISYTGNRPASNMVIVDVKMVSGFIPLKPTVKMLERSSSVSRTEVSNNHVLIYVEQVTNQTLSFSFMVLQDIPVGDLKPAIVKVYDYYETDESVVAEYIAPCSTDTEHGNV
B3: EFEMP1 (protein, UniProt Q12805 18-493)
chain: QDTEETITYTQCTDGYEWDPVRQQCKDIDECDIVPDACKGGMKCVNHYGGYLCLPKTAQIIVNNEQPQQETQPAEGTSGATTGVVAASSMATSGVLPGGGFVASAAAVAGPEMQTGRNNFVIRRNPADPQRIPSNPSHRIQCAAGYEQSEHNVCQDIDECTAGTHNCRADQVCINLRGSFACQCPPGYQKRGEQCVDIDECTIPPYCHQRCVNTPGSFYCQCSPGFQLAANNYTCVDINECDASNQCAQQCYNILGSFICQCNQGYELSSDRLNCEDIDECRTSSYLCQYQCVNEPGKFSCMCPQGYQVVRSRTCQDINECETTNECREDEMCWNYHGGFRCYPRNPCQDPYILTPENRCVCPVSNAMCRELPQSIVYKYMSIRSDRSVPSDIFQIQATTIYANTINTFRIKSGNENGEFYLRQTSPVSAMLVLVKSLSGPREHIVDLEMLTVSSIGTFRTSSVLRLTIIVGPFSF
B4: SETDB2 (protein, UniProt Q96T68 1-719)
chain: MGEKNGDAKTFWMELEDDGKVDFIFEQVQNVLQSLKQKIKDGSATNKEYIQAMILVNEATIINSSTSIKGASQKEVNAQSSDPMPVTQKEQENKSNAFPSTSCENSFPEDCTFLTTENKEILSLEDKVVDFREKDSSSNLSYQSHDCSGACLMKMPLNLKGENPLQLPIKCHFQRRHAKTNSHSSALHVSYKTPCGRSLRNVEEVFRYLLETECNFLFTDNFSFNTYVQLARNYPKQKEVVSDVDISNGVESVPISFCNEIDSRKLPQFKYRKTVWPRAYNLTNFSSMFTDSCDCSEGCIDITKCACLQLTARNAKTSPLSSDKITTGYKYKRLQRQIPTGIYECSLLCKCNRQLCQNRVVQHGPQVRLQVFKTEQKGWGVRCLDDIDRGTFVCIYSGRLLSRANTEKSYGIDENGRDENTMKNIFSKKRKLEVACSDCEVEVLPLGLETHPRTAKTEKCPPKFSNNPKELTVETKYDNISRIQYHSVIRDPESKTAIFQHNGKKMEFVSSESVTPEDNDGFKPPREHLNSKTKGAQKDSSSNHVDEFEDNLLIESDVIDITKYREETPPRSRCNQATTLDNQNIKKAIEVQIQKPQEGRSTACQRQQVFCDEELLSETKNTSSDSLTKFNKGNVFLLDATKEGNVGRFLNHSCCPNLLVQNVFVETHNRNFPLVAFFTNRYVKARTELTWDYGYEAGTVPEKEIFCQCGVNKCRKKIL
B5: SERPINA5 (bovine) (protein, UniProt Q9N2I2 25-404)
chain: KKIQEVPPAVTTAPPGSRDFVFDLYRALAAAAPAQNIFFSPLSITVSLAMLSLGAQSNTKAQILEGLGIGPGEGSEEELHSASQRLLRELQQPQDSLQLSLGNALFTKPRLPIQEAFLGAMRTLYLADTFPTNFEDPEGAKKKINDYVAKQTKGKIVDLIKSLDGTQVMVMVNYIFFKAKWETSFNLKSTHEQDFYVTPETVVRVPMMKQQDQFYYLLDRNLSCKVVGVPYQGNATAFFILPREGEMEQVENGLKEKTLKKWLRMPMKRRLELYLPKFSIEGSYQLEEVLPKLGIRDIFTSDADLTGISNHSSIRVSEMVHKAVVEVDESGTQAAAATGMVITFKSARLGSQRIVFNRPFLVLIVKNSKHILFLGKVTRP
B6: CFH (bovine) (protein, UniProt Q28085 19-1236)
chain: EDCKEPPPRKETEILSGSWTEQTYQEGTQATYKCRPGYRTLGSIVMMCRGGKWVSLHPSRICRKKPCAHPGDTPFGSFHLAEGTQFEYGAKVVYTCDEGYQMVGEMNFRECDTNGWTNDIPICEVVKCLPVTEPENGKIFSDALEPDQEYTYGQVVQFECNSGYMLDGPKQIHCSAGGVWSAETPKCVEIFCKTPVILNGQAVLPKATYKANERVQYRCAAGFEYGQRGDTICTKSGWTPAPTCIEITCDPPRIPNGVYRPELSKYRGQDKITYECKKGFFPEIRGTDATCTRDGWVPVPRCAWKPCSYPVIKHGRLYYSYRGYFPARVNQQFVYSCDHHFVPPSQRSWDHLTCTAEGWSPEEPCLRQCIFNYLENGHTPYREEKYLQGETVRVRCYEGYSLQNDQNTMTCTESGWSPPPRCIRVKTCSKSNIRIENGFLSESTFTYPLNKQTEYKCKPGYVTADGKTSGLITCLKNGWSAQPVCIKSCDRPVFEKARVKSDGTWFRLNDRLDYECVDGYENRDGRTTGSIVCGQDGWSDKAACYERECSIPEMDPYLNAYPRKETYKVGDVLKFSCSQGRIMVGADSVQCYHFGWSPKLPTCKVKKVKSCALPPELPNGKRKEIHKEEYAHNEVVEYACNPRFLMKGSHKIQCVDGEWTALPVCIEEERTCGNIPDLDHGDVKPSVPPYHHGDSVEFSCREAFTMIGPRFITCISGEWTQPPQCIATDELRKCKGSTLFPPEGRQAHKIEYDHNTNKSYQCRGKSEHKHSICINGEWDPKVDCNEEAKIQLCPPPPQVPNACDMTTTVNYQDGEKISILCKENYLIQDAEEIVCKDGRWQSIPRCIEKIGCSQPPQIDHGTISSSSSAEERREIHEQRLYAHGTKLSYTCEEGFEISENNVIICHMGKWSSPPQCVGLPCGLPPYVQNGVVSHKKDRYQYGEEVTYDCDEGFGTDGPASIRCLGGEWSRPQDCISTNCVNLPTFEDAVLTDREKDFYRSGEQVAFKCLSYYQLDGSNTIQCIKSKWIGRPACRDVSCGNPPQVENAIIHNQKSKYQSEERARYECIGNYDLFGEMEVVCLNGTWTEPPQCKDSQGKCGPPPPIDNGDITSLLQSVYPPGMIVEYRCQAYYELRGNKNVVCRNGEWSQLPKCLEACVISEETMRKHHIQLRWKHDKKIYSKTEDTIEFMCQHGYRQLTPKHTFRATCREGKVVYPRCG

biological target: recombinant TurboID fusion protein (of TIMP2; orientation not told for the serum experiment) (human) (UniProt P16035); assay: proximity labelling; 300nM recombinant TurboID fusion protein in human serum diluted to 50% with DPBS, 1uM biotin, 0.1mM ATP, 37°C, 1h; streptavidin pulldown, LC-MS/MS; duplicate; only the target purified

binding, binds:
Cathepsin G (CTSG) (from UniProt P08311) (enzyme)
B1
B2

biological target: BioID2 fusion proteins (of TIMP2; orientation not told for the hit) (human) (UniProt P16035); assay: proximity labelling; ePL with BioID2 fusions on wild-type HT1080 spheroids (3D, ultra-low binding plates); fusion-expressing cells grown in 2D; single duplicate experiment, both orientations (n=4 samples); streptavidin pulldown, LC-MS/MS

binding, binds:
TF (from UniProt P02787 20-698)
C3 (found in HT1080 spheroid cultures) (from UniProt P01024 23-1663)
CHIA (from UniProt Q9BZP6 22-476)
B3
B4

biological target: BioID2-TIMP2 fusion protein (human) (UniProt P16035); assay: as above

binding, binds:
LTBP1 (from UniProt Q14766 24-1721)
LTBP3 (from UniProt Q9NS15 44-1303)

biological target: TIMP2-BioID2 fusion protein (human) (UniProt P16035); assay: as above

binding, binds:
LTBP1 (from UniProt Q14766 24-1721)
LTBP3 (from UniProt Q9NS15 44-1303)

biological target: TIMP2-TurboID fusion protein (human) (UniProt P16035); assay: proximity labelling; extracellular proximity labeling (ePL) with TurboID fusions: conditioned medium of fusion-expressing HT1080 put on wild-type HT1080 in 2D, 1uM biotin, 0.1mM ATP, 1 hour; streptavidin pulldown of lysate plus medium, LC-MS/MS; cells untreated or treated with 40nM PMA or 40ug/mL ConA

binding, binds:
F13A1 (Coagulation Factor XIII A Chain), found in HT1080 cultures (from UniProt P12260)
Matrix metalloproteinase 1 (MMP1) (from UniProt P03956) (enzyme)

biological target: TurboID-TIMP2 fusion protein (human) (UniProt P16035); assay: as above

binding, binds:
C3 (bovine) (from UniProt Q2UVX4 23-1661)
F13A1 (Coagulation Factor XIII A Chain), found in HT1080 cultures (from UniProt P12260)
IGFBP3 (bovine) (from UniProt P20959 28-291)
B5
B6

These are yes or no findings as the source states them, for the method shown. Binding seen in cells or lysates may run through a third protein. These calls come from enrichment with a bait or labelling near it, and not all partners need be listed.
